Measurements taken from publication PMC2852419, “Identification of SOX9 Interaction Sites in the Genome of Chondrocytes”.
The exact form of at least one protein or probe is not confirmed. At least one verdict rests on a figure or table, not on a statement of the authors. Protein sequences can lack the tags named with them.

Target: T1, SOX9 (Homo sapiens) (UniProt P48436)
T1 sequence (looked up, limits assumed): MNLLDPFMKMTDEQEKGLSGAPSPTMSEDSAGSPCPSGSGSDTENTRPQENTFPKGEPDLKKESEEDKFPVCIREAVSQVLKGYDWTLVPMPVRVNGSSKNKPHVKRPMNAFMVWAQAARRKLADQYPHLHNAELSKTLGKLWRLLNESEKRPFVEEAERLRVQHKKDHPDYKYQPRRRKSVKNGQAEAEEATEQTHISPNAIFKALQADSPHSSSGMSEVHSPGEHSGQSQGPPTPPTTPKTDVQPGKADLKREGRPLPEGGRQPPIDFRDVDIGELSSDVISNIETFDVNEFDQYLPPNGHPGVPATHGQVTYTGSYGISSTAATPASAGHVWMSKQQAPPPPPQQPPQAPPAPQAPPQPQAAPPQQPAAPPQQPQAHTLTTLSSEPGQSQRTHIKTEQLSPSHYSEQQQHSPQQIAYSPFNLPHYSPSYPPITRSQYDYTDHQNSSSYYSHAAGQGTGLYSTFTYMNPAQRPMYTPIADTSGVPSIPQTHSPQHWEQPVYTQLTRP
Experiment: EMSA
Details: pH and temperature not given, recombinant protein, label: 32P-dCTP Klenow fill-in

| Sequence | binding result (0, 20 or 40 ng SOX9) | binding result (0, 20 or 40 ng SOX9, binds as dimer) |
| --- | --- | --- |
| GGCTGAGACAGGAATGAATCACTTTCCTGGGGGTGG (double strand) [Matrilin4 (rat)] | binds | – |
| GGGATGCCCGCTAACGGCTCACTTTTAATGTTTCCT (double strand) [Prelp (rat)] | binds | – |
| GGTTATGAGGATAAAGGAGCCTTGATGGGAAAAAGT (double strand) [Sox5 (rat)] | binds | – |
| GGGTCTGGGAACAAGGCAGTTCTTTGATTTGTGGTG (double strand) [Cdrap (rat)] | binds | – |
| GGCACTCGAGAAAAGCCCCATTCATGAGAGG (double strand) [Col2a1 intron 1 (rat)] | binds | – |
| GGATTTTGCCTGAAAGAACCCTTTAACAAGCAATGA (double strand) [Col11a1 (rat)] | binds | – |
| GGCAGATAGCTGAAGGCCTTCTTTACAGAAACCCAG (double strand) [Col2a1 intron 6 (rat)] | – | binds |
| GGCCCTCCCGACAAAGCACGCCTTGTATCCCCCACC (double strand) [Col11a2 (rat)] | binds | – |
| GGTGGATCAAACCAAAGCAGCCTTCTCCTCCCTCAA (double strand) [Syndecan-3 (rat)] | binds | – |
| GGGGGGGACAACAAAGAGAGCATTGTATCACACTCT (double strand) [Col1a1 (rat)] | binds | – |
| GGCGCTTGAGAAAAGCCCCATTCATGAGAGG (double strand) [Col2a1 intron 1 (mouse)] | binds | – |
